# Source: the supplement of paper PMC6143611
# Where “and” joins values, the source holds several entries; their conditions need not be identical. Equal values may be shown once. Where a name gives a salt, the structure may show the parent alone. ± gives the uncertainty stated by the source. Some of the results follow. Plates or batches differ in their baseline, so values are only roughly comparable.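 Larvae carried a heat-shock-induced fluorescent stripe in rod outer segments, set at 6 dpf; the shedding distance runs from this stripe to the outer segment tip, measured in confocal stacks, about three fish per compound. The controls got 0.2% DMSO vehicle, and the paper flagged compounds with at least a 20% change against the same-week control and p < 0.001 (Dunnett test on mixed-effects models).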
# Assays:
# [1] = test system: Danio rerio larva rod photoreceptor outer segment; assay: rod outer segment growth distance Dg, difference from same-week DMSO control mean; higher = more outer segment growth; settings: 20 µM; treatment time: 4 days (6-10 dpf)
# [2] = test system: Danio rerio larva rod photoreceptor outer segment; assay: rod outer segment shedding distance Ds, difference from same-week DMSO control mean; higher = less outer segment shedding; settings: 20 µM; treatment time: 4 days (6-10 dpf)
Compound,rod outer segment growth distance Dg [1],rod outer segment shedding distance Ds [2] [um]
Nc1ncn([C@H]2C[C@H](O)[C@@H](CO)O2)c(=O)n1 [Decitabine],0.31 ± 0.17 um,-1.54 ± 0.23
Cc1ccc(N(CC2=NCCN2)c2cccc(O)c2)cc1 [Phentolamine Mesylate],0.87 ± 0.29 um,-0.19 ± 0.31
C[C@H](NC(=O)[C@@H](O)c1cc(F)cc(F)c1)C(=O)N[C@@H]1C(=O)N(C)c2ccccc2-c2ccccc21,-2.24 ± 0.17 um,-0.76 ± 0.12
NC(CO)C(=O)NNCc1ccc(O)c(O)c1O (stereo not given) [Benserazide HCl],0.38 ± 0.25 um,-0.02 ± 0.28
C[C@H](N[C@@H](CCc1ccccc1)C(=O)O)C(=O)N1CCC[C@H]1C(=O)O [Enalaprilat Dihydrate],-0.2 ± 0.18 um,0.18 ± 0.19
CC(C)(Oc1ccc(C2CC2(Cl)Cl)cc1)C(=O)O (stereo not given) [Ciprofibrate],-0.96 ± 0.23 um,-0.04 ± 0.13
CC(=O)Nc1ccccc1 [Acetanilide],-0.69 ± 0.2 um,-0.39 ± 0.19
O=C1NC(=O)/C(=C/c2ccc3nccc(-c4ccncc4)c3c2)S1,-0.66 ± 0.28 um,0.04 ± 0.27
Cc1cccc(-c2[nH]c(C(C)(C)C)nc2-c2ccc3nccnc3c2)n1,-1.31 ± 0.25 um,1.31 ± 0.25
CCOc1cc(CC(=O)N[C@@H](CC(C)C)c2ccccc2N2CCCCC2)ccc1C(=O)O [Repaglinide],0.36 ± 0.16 um,-0.42 ± 0.2
NC(=O)c1ccc(N(C(N)=O)c2c(F)cccc2F)nc1-c1ccc(F)cc1F,0.22 ± 0.16 um,-0.03 ± 0.14
C[C@@H]1C[C@H]2[C@@H]3CCC4=CC(=O)C=C[C@]4(C)[C@@]3(F)[C@@H](O)C[C@]2(C)[C@@]1(O)C(=O)CO [Dexamethasone (DHAP)],0.61 ± 0.15 um,0.36 ± 0.15
CCN(C(=O)c1c(O)c2c(Cl)cccc2n(C)c1=O)c1ccccc1 [Laquinimod],-0.16 ± 0.13 um,0.33 ± 0.12
NC(=O)NO [Hydroxyurea],1.26 ± 0.23 um,1.9 ± 0.3
COc1ccc(Cl)cc1C(=O)NCCc1ccc(S(=O)(=O)NC(=O)NC2CCCCC2)cc1 [Glyburide],-0.13 ± 0.27 um,-0.32 ± 0.15
CCn1c(N)c(C(=O)NC)c(=O)c2ccc(C#CC(C)(O)COC)nc21 (stereo not given),0.44 ± 0.16 um,-0.07 ± 0.12
C[C@]12C=CC(=O)N[C@@H]1CC[C@@H]1[C@@H]2CC[C@]2(C)[C@@H](C(=O)Nc3cc(C(F)(F)F)ccc3C(F)(F)F)CC[C@@H]12 [Dutasteride],-0.45 ± 0.17 um,-2.04 ± 0.19
O=c1cc(-c2ccccc2)oc2cc(O)c(O)c(O)c12 [Baicalein],-0.23 ± 0.21 um,0.58 ± 0.34
CC(C(=O)O)c1cccc(C(=O)c2ccccc2)c1 (stereo not given) [Ketoprofen],-1.33 ± 0.23 um,0.32 ± 0.15
COc1ccc(-c2cc(=O)c3c(O)cc(O[C@@H]4O[C@H](CO[C@@H]5O[C@@H](C)[C@H](O)[C@@H](O)[C@H]5O)[C@@H](O)[C@H](O)[C@H]4O)cc3o2)cc1O [Diosmin],-0.1 ± 0.35 um,0.18 ± 0.35
C[C@H](CCC(=O)O)[C@H]1CC[C@H]2[C@@H]3[C@H](O)C[C@@H]4C[C@H](O)CC[C@]4(C)[C@H]3CC[C@]12C [Chenodeoxycholic Acid],-0.85 ± 0.17 um,-1.08 ± 0.25
CN(C)c1nc(N(C)C)nc(N(C)C)n1 [Altretamine],0.16 ± 0.15 um,-0.37 ± 0.2
CN(C)c1ccc(C(=O)NCCCCCCC(=O)NO)cc1,0.13 ± 0.14 um,0.04 ± 0.13
CC1(C)[C@H](C(=O)O)N2C(=O)C[C@H]2S1(=O)=O [Sulbactam],0.19 ± 0.19 um,-0.97 ± 0.27
N#CC[C@H](C1CCCC1)n1cc(-c2ncnc3[nH]ccc23)cn1,0.39 um and 0.69 um,–
CC1(C)S[C@@H]2[C@H](NC(=O)[C@H](N)c3ccc(O)cc3)C(=O)N2[C@H]1C(=O)O [Amoxicillin Sodium],0.5 ± 0.29 um,-0.75 ± 0.15
NC12CC3CC(CC(C3)C1)C2 [Amantadine HCl],-0.66 ± 0.29 um,-0.13 ± 0.29
Cc1ccc(C(=O)Cn2c3c(sc2=N)CCCC3)cc1 [Pifithrin-α (PFTα)],-3.04 ± 0.63 um,-0.91 ± 0.52

# Some of the entries so far, with bars between the fields:
Compound | rod outer segment growth distance Dg [1] | rod outer segment shedding distance Ds [2] [um]
CN(C)c1ccc(C(=O)NCCCCCCC(=O)NO)cc1 | 0.13 ± 0.14 um | 0.04 ± 0.13
CC1(C)[C@H](C(=O)O)N2C(=O)C[C@H]2S1(=O)=O [Sulbactam] | 0.19 ± 0.19 um | -0.97 ± 0.27
